PubChem BioAssay AID1259405 | NCATS, 2018

Purpose: 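Mouse-designed siRNAs used to find CHO productivity engineering targets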 (primary screen)
Cell system: Chinese hamster CHO-K1 ovary cells with stable secreted eGFP expression
Reagent: single siRNA against mouse genes, 0.8 pmol siRNA per well (2 µl of 400 nM stock)
Timing: 3 days
Measurement: 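Percent of the per-plate non-targeting control median for intracellular GFP per well by laser scanning cytometry and for cell viability by ATP luminescence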
Direction: GFP, % of control: higher = more GFP per well, higher productivity; viability (ATP), % of control: higher = more viable cells (more ATP)
Call rule: 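a knock-down is called active if GFP reaches 120% or more of non-targeting control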
In all, the deposit lists about 50,000 reagents; this is a part drawn at random. In the full data, about 4,000 (8%) were called active. 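Mouse siRNA library applied to hamster cells; one well for each siRNA.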 Reagents against one gene are numbered here. Reagent sequences are not shown.

GFP, % of control	viability (ATP), % of control	outcome	gene symbol	reagent
59.7	51.9	inactive	Entpd3 (ectonucleoside triphosphate diphosphohydrolase 3)	1
87.2	103	inactive	Entpd3 (ectonucleoside triphosphate diphosphohydrolase 3)	2
109	60	inactive	Entpd3 (ectonucleoside triphosphate diphosphohydrolase 3)	3
104	99.7	inactive	Apol10b (apolipoprotein L 10B)	1
79.3	92.2	inactive	Apol10b (apolipoprotein L 10B)	2
64	72.5	inactive	Apol10b (apolipoprotein L 10B)	3
99.6	117	inactive	Etv6 (ets variant 6)	1
84	84.5	inactive	Etv6 (ets variant 6)	2
44.3	61.4	inactive	Vsig1 (V-set and immunoglobulin domain containing 1)	1
58.3	37.5	inactive	Vsig1 (V-set and immunoglobulin domain containing 1)	2
71.7	72.5	inactive	Vsig1 (V-set and immunoglobulin domain containing 1)	3
58.3	55.6	inactive	Vmn1r32 (vomeronasal 1 receptor 32)	1
64	55.8	inactive	Vmn1r32 (vomeronasal 1 receptor 32)	2
104	116	inactive	Vmn1r32 (vomeronasal 1 receptor 32)	3
71.7	71.1	inactive	Kcnb1	1
102	60.4	inactive	Kcnb1	2
52.3	43.4	inactive	Kcnb1	3
86.9	35.5	inactive	Ppp6r2 (protein phosphatase 6, regulatory subunit 2)	1
57	76	inactive	Ppp6r2 (protein phosphatase 6, regulatory subunit 2)	2
110	103	inactive	Ppp6r2 (protein phosphatase 6, regulatory subunit 2)	3
85.3	125	inactive	Bpifb2 (BPI fold containing family B, member 2)	1
70.6	80.1	inactive	Bpifb2 (BPI fold containing family B, member 2)	2
109	54.5	inactive	Parl (presenilin associated, rhomboid-like)	1
66.6	75.9	inactive	Parl (presenilin associated, rhomboid-like)	2
68.9	57.8	inactive	Parl (presenilin associated, rhomboid-like)	3
78.9	50.9	inactive	Cd82 (CD82 antigen)	1
56.9	65.3	inactive	Cd82 (CD82 antigen)	2
42.8	54.9	inactive	Cd82 (CD82 antigen)	3
23	49.5	inactive	Fam222b (family with sequence similarity 222, member B)	1
79.6	89.5	inactive	Fam222b (family with sequence similarity 222, member B)	2
130	177	active	Fam222b (family with sequence similarity 222, member B)	3
77.2	59	inactive	Tmem38a (transmembrane protein 38A)	1
82.7	71.1	inactive	Tmem38a (transmembrane protein 38A)	2
116	68.4	inactive	Tmem38a (transmembrane protein 38A)	3
75.6	42.7	inactive	Lyn (Lyn proto-oncogene, Src family tyrosine kinase)	1
19.1	35.9	inactive	Ppp1r9b (protein phosphatase 1, regulatory subunit 9B)	1
124	80.3	active	Ppp1r9b (protein phosphatase 1, regulatory subunit 9B)	2
99.1	45.7	inactive	Or6c76 (olfactory receptor family 6 subfamily C member 76)	1
61.7	55.7	inactive	Or6c76 (olfactory receptor family 6 subfamily C member 76)	2
111	89.1	inactive	Or6c76 (olfactory receptor family 6 subfamily C member 76)	3

The list goes on; the last 3 above are carried over.
GFP, % of control	viability (ATP), % of control	outcome	gene symbol	reagent
99.1	45.7	inactive	Or6c76 (olfactory receptor family 6 subfamily C member 76)	1
61.7	55.7	inactive	Or6c76 (olfactory receptor family 6 subfamily C member 76)	2
111	89.1	inactive	Or6c76 (olfactory receptor family 6 subfamily C member 76)	3
100	94.7	inactive	Vsx2 (visual system homeobox 2)	1
100	81.5	inactive	Vsx2 (visual system homeobox 2)	2
70	69.1	inactive	Vsx2 (visual system homeobox 2)	3
63.8	68.4	inactive	Zfp526 (zinc finger protein 526)	1
60	65.6	inactive	Zfp526 (zinc finger protein 526)	2
37.3	42.2	inactive	Zfp526 (zinc finger protein 526)	3
70.7	89.4	inactive	Slitrk4 (SLIT and NTRK-like family, member 4)	1
60.3	83.5	inactive	Slitrk4 (SLIT and NTRK-like family, member 4)	2
49.7	91.8	inactive	Slitrk4 (SLIT and NTRK-like family, member 4)	3
66.2	54.2	inactive	Creb1 (cAMP responsive element binding protein 1)	1
73.2	62.2	inactive	Creb1 (cAMP responsive element binding protein 1)	2
106	103	inactive	Creb1 (cAMP responsive element binding protein 1)	3
79.5	64.3	inactive	Fam241a (family with sequence similarity 241, member A)	1
76.4	92.9	inactive	Fam241a (family with sequence similarity 241, member A)	2
57.4	64.9	inactive	Fam241a (family with sequence similarity 241, member A)	3
17.1	64.8	inactive	Wdr37 (WD repeat domain 37)	1
59.4	76.3	inactive	Wdr37 (WD repeat domain 37)	2
64.8	70	inactive	Wdr37 (WD repeat domain 37)	3
56.6	55	inactive	Gpkow (G patch domain and KOW motifs)	1
26.1	24.2	inactive	Gpkow (G patch domain and KOW motifs)	2
103	95.7	inactive	Gpkow (G patch domain and KOW motifs)	3
79.3	61.8	inactive	Lmod1 (leiomodin 1 (smooth muscle))	1
71.5	73.6	inactive	Lmod1 (leiomodin 1 (smooth muscle))	2
39	32.3	inactive	Lmod1 (leiomodin 1 (smooth muscle))	3
47.7	78.8	inactive	Ubap1 (ubiquitin-associated protein 1)	1
78.4	81.2	inactive	Ubap1 (ubiquitin-associated protein 1)	2
79.5	90.7	inactive	Ubap1 (ubiquitin-associated protein 1)	3
89.1	81	inactive	Plod3 (procollagen-lysine, 2-oxoglutarate 5-dioxygenase 3)	1
78.2	59.7	inactive	Plod3 (procollagen-lysine, 2-oxoglutarate 5-dioxygenase 3)	2
52.9	33.3	inactive	Plod3 (procollagen-lysine, 2-oxoglutarate 5-dioxygenase 3)	3
74.7	70.7	inactive	Psmd7 (proteasome (prosome, macropain) 26S subunit, non-ATPase, 7)	1
86.2	77.5	inactive	Psmd7 (proteasome (prosome, macropain) 26S subunit, non-ATPase, 7)	2
102	99.1	inactive	Tex19.2 (testis expressed gene 19.2)	1
109	79.9	inactive	Tex19.2 (testis expressed gene 19.2)	2
53.6	82.6	inactive	Tex19.2 (testis expressed gene 19.2)	3
70.3	68.8	inactive	Pard6g (par-6 family cell polarity regulator gamma)	1
99.4	91.6	inactive	Pard6g (par-6 family cell polarity regulator gamma)	2
102	126	inactive	Pard6g (par-6 family cell polarity regulator gamma)	3
54.9	55.3	inactive	Vmn1r214 (vomeronasal 1 receptor 214)	1
116	108	inactive	Vmn1r214 (vomeronasal 1 receptor 214)	2
39.2	48.7	inactive	Vmn1r214 (vomeronasal 1 receptor 214)	3
172	85.2	active	Ptgir (prostaglandin I receptor (IP))	1
86	74.1	inactive	Ptgir (prostaglandin I receptor (IP))	2
109	90	inactive	Ptgir (prostaglandin I receptor (IP))	3
